Reference: patent US20100028406A1, “TOPICAL DRUG DELIVERY BY IONTOPHORESIS” (UNIVERSITE DE GENEVE, priority 2005, published 2010)

Assay: Iontophoresis across porcine skin in vitro, 3-compartment cells, acetaminophen as electroosmosis marker
Conditions: for effect on basal acetaminophen transport (EO marker): 2 mM donor, absence of competing Na+ ions
Protocol: Porcine ear skin, which is a well-accepted model for human skin (Dick and Scott, 1992; Sekkat et al., 2002), was used in these studies. Porcine ears were obtained from a local abattoir (Société d'Exploitation d'Abbatage, Annecy, France) a few hours after the sacrifice of the animals. The excised skin was then dermatomed (˜750 μm) on the same day and stored at −20° C. for a maximum of two months.
Iontophoresis was performed using vertical 3-compartment cells (FIG. 2). The skin was placed between two half-cells: the upper half, in contact with the SC, comprised two electrode/donor compartments, while the lower receiver compartment was in contact with the dermis. A flow-through system circulated phosphate-buffered normal saline (PBS: 16.8 mM Na2HPO4, 1.4 mM KH2PO4 and 136.9 mM NaCl; pH 7.4) through the receiver chamber (volume 4.7 mL) at a rate of 3 mL/h. Ag/AgCl electrodes were used throughout the study. The skin was allowed to equilibrate for one hour prior to the iontophoresis experiment. In order to reduce competition from Na^+ ions present in the donor, and thus to increase the permeation of VCV, most experiments were performed using a salt bridge assembly. This strategy consists of physically separating the anodal chamber (Ag electrode immersed in PBS pH 7.4) from the donor compartment (drug solution in contact with the SC) and employing a salt bridge (prepared by filling a 12 cm tubing with a warm aqueous solution of 3% agarose and 0.1 M NaCl and then allowed to cool) to electrically connect the two chambers. […] For control experiments without the salt bridge, the anodal compartment contained 1 mL of 10 mM VCV.HCl in PBS pH 7.4. The cathodal compartment contained PBS pH 7.4 in all the experiments. A constant current of 0.34 mA was applied for 7 hours (equivalent to a current density of 0.5 mA/cm^2). […]
The experiments were performed in sextuplicate, except for passive delivery (n=3), using the skin of as many different animals as possible. Samples were collected hourly and analyzed by high pressure liquid chromatography (HPLC). […]

Compound	effect on basal acetaminophen transport (EO marker)	effect on acetaminophen transport (EO marker) (VCV donor concentration increased from 2 to 10 mM)
Nc1nc2c(ncn2COCCO)c(=O)[nH]1 [ACV, acyclovir]	unaffected	
CC(C)[C@H](N)C(=O)OCCOCn1cnc2c(=O)[nH]c(N)nc21 [VCV, valaciclovir]	unaffected	decreased significantly
